Experimental data from PubChem BioAssay AID743266 (National Center for Advancing Translational Sciences (NCATS), 2014).
The whole screen tested about 410,000 compounds, of which about 310 (0.076%) were called active. The shares of active, inactive and inconclusive entries below differ from those in the screen. Calls follow the shape of the dose curve; as a rule, active = well fitted activation curve with a large enough effect; inconclusive = small, poorly fitted or top-dose-only effect, or another doubt; inactive = no such curve, though single readings can be large or run the other way. Potencies beside an inconclusive call are fits to weak or partial responses and may not hold up.
Also: nearly all actives have a fitted effect of over 55% in size.
Potency is read from the fitted curve at half-maximal effect.

Amino acid sequences for entries named in this document (tags omitted). A change or cut given only in a name is not applied to a line headed by its entry.
UniProt Q03431: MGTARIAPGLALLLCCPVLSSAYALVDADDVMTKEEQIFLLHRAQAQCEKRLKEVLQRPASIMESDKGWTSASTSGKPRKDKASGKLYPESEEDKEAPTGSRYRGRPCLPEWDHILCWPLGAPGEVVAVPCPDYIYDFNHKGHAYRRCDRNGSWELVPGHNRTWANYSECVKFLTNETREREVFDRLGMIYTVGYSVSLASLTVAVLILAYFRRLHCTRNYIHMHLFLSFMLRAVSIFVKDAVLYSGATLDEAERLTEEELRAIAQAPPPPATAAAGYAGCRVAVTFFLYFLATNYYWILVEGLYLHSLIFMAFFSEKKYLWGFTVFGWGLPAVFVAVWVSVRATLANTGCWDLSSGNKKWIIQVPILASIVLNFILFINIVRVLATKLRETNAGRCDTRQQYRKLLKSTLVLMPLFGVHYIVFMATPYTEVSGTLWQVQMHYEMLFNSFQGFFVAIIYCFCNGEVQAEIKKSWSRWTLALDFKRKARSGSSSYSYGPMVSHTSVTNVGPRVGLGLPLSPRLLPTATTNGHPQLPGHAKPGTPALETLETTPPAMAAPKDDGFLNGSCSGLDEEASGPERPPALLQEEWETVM

The molecules below were run against Parathyroid hormone/parathyroid hormone-related peptide receptor (Homo sapiens) (UniProt Q03431) (assay: qHTS for PTHR1 Agonists: Primary Screen). Conditions: HEK293 GP2 PTHR1 cells, GloSensor cAMP luminescence, 1 h; activation: at 115 µM (top of the series) unless noted; series mostly up to 115 µM.
In short: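 HEK-293-derived GP2 cells expressing PTHR1 and a GloSensor cAMP reporter, 3,000/well, plated overnight, given luciferin plus IBMX (each 0.5 mM as added) for 1 h at 37 °C, then compound for 1 h at 37 °C. Luminescence was read after 15 min at room temperature.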
O=C(N/N=C/c1cccc([N+](=O)[O-])c1)c1cccs1 was tested, and the activation was inconclusive: 32.8% [activator]. CCN(CC)C(=O)c1sc2c(c1C)c(=O)n(-c1ccc(C)c(C)c1)c(=O)n2CC(=O)Nc1ccc(F)cc1 was tested, and the activation was inconclusive: -95.9% [activator]. For CCN(CCCNC(=O)C1CCN(S(=O)(=O)c2cnc[nH]2)CC1)c1cccc(C)c1, the activation was inconclusive: -24.9% [activator] [at 57.5 µM]. With CC(=O)Nc1ccc(S(=O)(=O)/N=C2\C(=O)c3ccccc3C([O-])=C2n2cc[n+](-c3ccccn3)c2)cc1 the Potency was inconclusive: 126 µM [activator, single point]. With CCCC(c1nnnn1CCOC)N1CCN(C(=O)c2ccco2)CC1 (configuration not stated) the Potency was inconclusive: 44.7 µM [activator, partial curve, poor fit]. For Cc1ccc(C(=O)CSc2nnc(CNc3ccc(F)cc3)o2)cc1, the Potency was inconclusive: 17.8 µM [activator, single point]. With CCOC(=O)c1c(C)[nH]c(C)c1S(=O)(=O)N1CCC(C(=O)Nc2ccccn2)CC1 the Potency was “inactive”. With Cc1ccccc1-n1c(=O)n(Cc2ccccc2)c(=O)c2[nH]cnc21 the Potency was inconclusive: 141 µM [activator, single point]. For COc1cc(C(=O)NC(=S)NCc2ccco2)cc(OC)c1OC, the Potency was inconclusive: 3.98 µM [activator, single point]. For Cc1cc(C)n(-c2nc(NCCO)c3c4c(sc3n2)CCCC4)n1, the Potency was “inactive”. CCSc1nnc(-c2ccc(S(=O)(=O)N3CCOCC3)cc2)n1C was tested, and the activation was inconclusive: -17.7% [activator]. For O=C1C(c2ccc(F)cc2)N(CCc2ccccc2)C(=O)CN1C1CCCCC1 (configuration not stated), the Potency was inconclusive: 6.31 µM [activator, full curve, poor fit]. For Cc1nc(CN2CCCCC2)cc(=O)[nH]1, the Potency was inconclusive: 35.5 µM [activator, partial curve]. O=C1CSC(c2cccc(F)c2)N1c1ccc(O)cc1 (configuration not stated) was tested, and the Potency was inconclusive: 35.5 µM [activator, single point]. With CC(C)(C)NC(=O)CSc1nnc(-c2ccco2)n1Cc1ccco1 the activation was inconclusive: 198% [activator] [at 57.5 µM]. With Cc1cc(C(=O)COC(=O)c2ccncc2)c(C)n1Cc1ccco1 the activation was inconclusive: -30.8% [activator]. In the case of CCCC12CN3CC(CCC)(CN(C1)C3c1c(C)[nH]c(=O)[nH]c1=O)C2=O (configuration not stated), the Potency was inconclusive: 141 µM [activator, single point]. For O=C(NCCN1CCOCC1)c1cc(Br)ccc1Cl, the Potency was inconclusive: 44.7 µM [activator, single point]. In the case of COc1ccc(NC(C)=O)c(C)c1, the Potency was “inactive”. CCOC(=O)c1ccn(-c2nc(-c3cccc(OC)c3)cc(C(F)(F)F)n2)n1 was tested, and the Potency was “inactive”. With CSc1ncccc1C(=O)OCC(=O)N1CCCC1 the Potency was inconclusive: 126 µM [activator, single point]. For CC(=O)NC(Cc1ccccc1)C(=O)N1CCN(C(=O)c2ccco2)CC1 (configuration not stated), the Potency was inconclusive: 8.91 µM [activator, partial curve, poor fit]. For CCCCn1c(N)c(N(CCOC)C(=O)C2CC(=O)N(c3ccc(CC)cc3)C2)c(=O)[nH]c1=O (configuration not stated), the Potency was inconclusive: 112 µM [activator, single point]. CCOc1ccc(Br)cc1S(=O)(=O)NC1CC(C)(C)NC(C)(C)C1 was tested, and the Potency was inconclusive: 14.1 µM [activator, partial curve]. In the case of CC(=O)Oc1ccc2c(C)cc(=O)oc2c1, the Potency was “inactive”. For NS(=O)(=O)c1ccc(NC(=O)Cc2c(F)cccc2Cl)cc1, the Potency was inconclusive: 11.2 µM [activator, partial curve]. For Cn1c(N2CCOCC2)nc2c1c(=O)n(Cc1ccc(Cl)cc1)c(=O)n2C, the Potency was inconclusive: 12.6 µM [activator, partial curve, poor fit]. With Cc1cc(-n2nc(C)cc2C)n2nc(C)c(-c3ccc(Cl)cc3)c2n1 the Potency was inconclusive: 3.16 µM [activator, single point]. In the case of CCc1ccccc1N1CC(C(=O)N2Cc3ccccc3CC2C(N)=O)CC1=O (configuration not stated), the Potency was inconclusive: 25.1 µM [activator, single point]. With CC(C(=O)Nc1ccccn1)c1ccccc1 (configuration not stated) the Potency was inconclusive: 126 µM [activator, single point]. Cc1ccc(C)c(N(C(=O)CNC(=O)c2ccco2)C(C(=O)NC2CCCCC2)c2cccnc2)c1 (configuration not stated) was tested, and the activation was inconclusive: 40% [activator]. CC(=O)c1c(C)[nH]c(C(=O)NC2CCSc3ccccc32)c1C (configuration not stated) was tested, and the activation was inconclusive: -38.3% [activator]. For COc1cc2c(cc1OC)C(=S)NC1(CCCC1)C2, the Potency was inconclusive: 14.1 µM [activator, single point]. CC(=O)c1ccc(N(CC(=O)NC2CCCCC2)C(=O)c2csnn2)cc1 was tested, and the Potency was inconclusive: 112 µM [activator, single point]. With O=C(CCCCCn1c(=S)[nH]c2cc3c(cc2c1=O)OCO3)N1CCN(c2ccccc2)CC1 the Potency was “inactive”. Cc1cc(C(=O)NNS(=O)(=O)c2ccc(F)cc2)nn1C(C)(C)C was tested, and the Potency was inconclusive: 11.2 µM [activator, full curve, poor fit]. For CC1(C)CC(=O)C(C=Nc2ccccc2Sc2ccccc2)=C(O)C1, the Potency was “inactive”. N/C(=N/O)c1nc(N2CCCC2)nc(N(c2ccccc2)c2ccccc2)n1 was tested, and the Potency was inconclusive: 15.8 µM [activator, partial curve, poor fit]. For CC1(C(=O)O)Cc2ccccc2C(=O)O1 (configuration not stated), the activation was inconclusive: 337% [activator] [at 57.5 µM]. Cc1cc(=O)[nH]c2nnc(SCc3cccc(C(F)(F)F)c3)n12 was tested, and the activation was inconclusive: 35.9% [activator]. For CC1=C(C(=O)NCc2cccc(Cl)c2)C2(CCCCCC2)OC1=O, the activation was inconclusive: -52.1% [activator]. In the case of CCOC(=O)c1[nH]c(=S)n(Cc2ccccc2)c1C(=O)OCC, the activation was inconclusive: 34.1% [activator]. In the case of O=C(C1=NN(c2ccccc2)C2C(=O)N(c3ccccc3)C(=O)C12)c1ccccc1 (configuration not stated), the Potency was “inactive”. In the case of CC(C)c1ccc(-n2cnn(-c3ncccc3[N+](=O)[O-])c2=O)cc1, the Potency was “inactive”. O=c1[nH]c(/C=C/c2ccc(Br)cc2)nc2ccccc12 was tested, and the Potency was “inactive”. In the case of CC(C)[C@H]1CN=C2N(C[C@H](C)NC(=O)CCC3CCCCC3)[C@H](Cc3ccc(O)cc3)CN21, the Potency was “inactive”. In the case of CSc1ncc(Cl)c(C(=O)Nc2c(C(=O)c3ccc(C)cc3)oc3ccccc23)n1, the Potency was “inactive”. With C=CCSc1nsc(NC(=O)Nc2ccc(F)cc2)n1 the Potency was “inactive”. O=C(Nc1ccc(Cl)cc1C(=O)NCCN1CCOCC1)c1ccc(Cl)cc1Cl was tested, and the Potency was inconclusive: 3.55 µM [activator, partial curve, poor fit]. For c1ccc(N2CCN(Cc3ccc4c(c3)OCO4)CC2)nc1, the Potency was “inactive”. CCN(Cc1ccccc1)C(=S)NC(=O)c1ccccc1Br was tested, and the Potency was “inactive”. COC(=O)c1cc(Cl)c(NC(=O)/C=C/c2ccc(Cl)cc2)cc1OC was tested, and the Potency was inconclusive: 5.62 µM [activator, full curve, poor fit]. For Fc1ccc(-c2nnn3c2nc(NCc2ccccc2)c2ccccc23)cc1, the Potency was inconclusive: 1.78 µM [activator, full curve, poor fit]. With CCCCCCOc1ccc(C(=O)n2cnc(N)n2)cc1 the Potency was “inactive”. With CN(C(=O)CCN1C(=O)c2ccccc2C1=O)C1CCCCC1 the Potency was inconclusive: 2 µM [activator, full curve, poor fit]. CC(C)C[C@H](NC(=O)OC(C)(C)C)c1nnc(SCC(=O)Nc2ccc(Br)cc2)o1 was tested, and the activation was inconclusive: -43.8% [activator] [at 57.5 µM]. In the case of COc1ccc(Cl)cc1C(=O)NCC(c1ccc(N(C)C)cc1)N1CCCC1 (configuration not stated), the Potency was inconclusive: 89.1 µM [activator, partial curve, poor fit]. For CS/C(=C\[N+](=O)[O-])Nc1ccc(Cl)cc1, the Potency was “inactive”. With O=C(O)C1C2C=CC(C3CC23)C1C(=O)N1CCc2ccccc21 (configuration not stated) the Potency was inconclusive: 56.2 µM [activator, single point]. With Cc1sc2nc(NCCO)[nH]c(=O)c2c1C the activation was inconclusive: 33.7% [activator]. For COC(=O)c1cc(OC)c(OC)cc1NC(=O)Cc1ccccc1[N+](=O)[O-], the activation was inconclusive: -36.7% [activator]. COc1ccccc1OCC(=O)NC1CCCc2ccccc21 (configuration not stated) was tested, and the Potency was “inactive”. In the case of COc1ccc(C2(C(=O)Nc3cc(C)on3)CCOCC2)cc1, the activation was inconclusive: -45.6% [activator] [at 57.5 µM]. With CCNc1c(NCC)c(=O)c1=O the activation was inconclusive: -43.6% [activator]. COc1ccc(CN(C)C(=O)/C=C/[C@H]2O[C@@H](n3cc(C)c(=O)[nH]c3=O)C[C@@H]2O)cc1OC was tested, and the Potency was “inactive”. For Cc1nc(N2CCOCC2)nc2c1CCC2, the activation was inconclusive: 58.5% [activator]. For COc1cccc(-c2cccc(NC(=O)C3CCN(C4CCOCC4)CC3)c2)c1, the activation was inconclusive: 32.9% [activator]. CN(C)CCn1c2c(c(SCC(=O)Nc3cccc(C(F)(F)F)c3)nc1=O)CCCC2 was tested, and the Potency was “inactive”. For Cc1ccc(Cl)cc1N1CCN(C(=O)c2noc3c2CCCC3)CC1, the Potency was “inactive”. With O=C(NCc1ccco1)/C(=C/c1ccccc1F)NC(=O)c1ccccc1 the activation was inconclusive: 34.9% [activator]. For c1csc(C(c2nnnn2C2CCCC2)N2CCOCC2)c1 (configuration not stated), the activation was inconclusive: 7.96% [activator] [at 57.5 µM]. COc1ccc(C)cc1-n1c(SCC(=O)Nc2cccc(C(=O)O)c2)nc2ccccc2c1=O was tested, and the Potency was inconclusive: 39.8 µM [activator, partial curve, poor fit].
